Among the data in article PMC1828611 are binding values, retold here.

Amino acid sequences for entries named in this document (tags omitted). A change or cut given only in a name is not applied to a line headed by its entry.
UniProt Q9VCQ7: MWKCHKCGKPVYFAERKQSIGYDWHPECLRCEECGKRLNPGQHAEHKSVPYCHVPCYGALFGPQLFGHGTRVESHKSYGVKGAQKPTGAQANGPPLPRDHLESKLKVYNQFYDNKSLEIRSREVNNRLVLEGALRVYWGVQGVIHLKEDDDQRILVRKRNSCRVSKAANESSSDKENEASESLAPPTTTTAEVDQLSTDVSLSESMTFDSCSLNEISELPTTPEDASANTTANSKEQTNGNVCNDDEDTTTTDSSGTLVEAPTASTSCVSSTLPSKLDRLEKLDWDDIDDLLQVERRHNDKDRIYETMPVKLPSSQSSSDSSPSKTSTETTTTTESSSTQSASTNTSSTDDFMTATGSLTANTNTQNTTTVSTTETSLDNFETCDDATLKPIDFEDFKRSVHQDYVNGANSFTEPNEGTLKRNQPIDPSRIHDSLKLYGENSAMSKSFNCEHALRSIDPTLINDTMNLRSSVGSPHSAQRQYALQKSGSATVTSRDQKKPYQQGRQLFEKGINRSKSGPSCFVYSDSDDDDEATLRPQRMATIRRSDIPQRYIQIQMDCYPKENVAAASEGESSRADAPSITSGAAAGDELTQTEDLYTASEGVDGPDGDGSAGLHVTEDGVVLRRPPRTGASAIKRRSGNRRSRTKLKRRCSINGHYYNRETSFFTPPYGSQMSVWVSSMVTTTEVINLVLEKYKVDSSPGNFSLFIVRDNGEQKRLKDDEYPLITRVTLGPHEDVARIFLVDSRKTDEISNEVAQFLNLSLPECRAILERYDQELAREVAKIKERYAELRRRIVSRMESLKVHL

Experiment [1] addresses Drosophila RASSF ortholog (dRASSF), endogenous (Drosophila melanogaster (endogenous in Kc cells)) (UniProt Q9VCQ7). Description: co-IP; endogenous proteins immunoprecipitated from Kc cell lysates with dRASSF antibodies (or Sav antibodies, Figure S2C); control Myc antibodies; blotted with Hpo66 and dRASSF antibodies.
Experiment [2] addresses GFP-dRASSF (Drosophila melanogaster). Description: co-IP; Hpo-Myc, Sav-HA and GFP-dRASSF cotransfected in Kc cells; anti-Myc, anti-HA, anti-dRASSF or control (anti-Flag) immunoprecipitates blotted for GFP-dRASSF, Sav-HA, Hpo-Myc and phospho-MST1.
The target is the same in experiment [3]. Kind of experiment: co-IP; Hpo-Flag or Hpo^ΔC-Flag cotransfected with GFP-dRASSF in Kc cells; anti-dRASSF or control (anti-Myc) immunoprecipitates blotted for GFP-dRASSF and Hpo-Flag.
The target in experiment [4] is Hpo^KD-Flag (kinase-dead form of Hpo) (Drosophila melanogaster) (UniProt Q8T0S6). Description: co-IP; separate Kc cell lysates expressing Hpo^KD-Flag, HA-dRASSF and Sav-HA (200 ng or 400 ng) mixed, incubated overnight, immunoprecipitated with Flag antibody; blots probed with HA and Flag antibodies.

These are yes or no findings as the source states them, for the method shown. Binding seen in cells or lysates may run through a third protein. A result given as binding can be weak or reduced; the word gives no strength. For part of these data: Where a sequence is shown, tags or fusion partners need not be part of it.

B1: Hippo (Hpo), endogenous (protein, UniProt Q8T0S6 1-669)
chain: MSEPEVTSVVDMKSPNISSSCSFFKLKKLSEESLLQPPEKVFDIMYKLGEGSYGSVYKAVHKESSSIVAIKLVPVESDLHEIIKEISIMQQCDSPYVVRYYGSYFKQYDLWICMEYCGAGSVSDIMRLRKKTLTEDEIATILSDTLQGLVYLHLRRKIHRDIKAANILLNTEGYAKLADFGVAGQLTDTMAKRNTVIGTPFWMAPEVIEEIGYDCVADIWSLGITALEMAEGKPPYGEIHPMRAIFMIPQKPPPSFREPDRWSTEFIDFVSKCLVKEPDDRATATELLEHEFIRNAKHRSILKPMLEETCAIREQQRANRSFGGVLAASQAKSLATQENGMQQHITDNAFMEDPGTLVPEKFGEYQQSSASDATMIAHAEQGVDEGTLGPGGLRNLSKAAAPAAASSAASPLDMPAVDSGTMVELESNLGTMVINSDSDDSTTAKNNDDQKPRNRYRPQFLEHFDRKNAGDGRGDEKPIATEYSPAAAEQQQQQQQQQQQQQQDEQHLASGANDLNNWEHNMEMQFQQISAINQYGLQQHQQQQQVLMAYPLMNEQLIALNNQPNLLLSNAAPMGQQGIPAAAPAQPPPAYQNQHMHTQSHAYVEGEFEFLKFLTFDDLNQRLCNIDHEMELEIEQLNKKYNAKRQPIVDAMNAKRKRQQNINNNLIKI
In the case of B1, the binding result in experiment [1] is given as “binds”.

B2: Hpo-Myc (protein, UniProt Q8T0S6 1-669)
chain: B1 chain
Consider B2, for which the binding result in experiment [2] is on record as “binds”.

B3: Hpo-Flag (protein, UniProt Q8T0S6 1-669)
chain: B1 chain
Turning to B3, the binding entry in experiment [3] was “binds”.

B4: Sav-HA (protein, UniProt Q9VCR6 1-608)
chain: MNYLTILLCNRKPTMLSRRNKEKSQHKEGVVGKYMKKDTPPDISVINVWSDQRAKKKSLQRCASTSPSCEFHPRSSSTSRNTYSCTDSQPDYYHARRAQSQMPLQQHSHSHPHSLPHPSHPHVRSHPPLPPHQFRASSNQLSQNSSNYVNFEQIERMRRQQSSPLLQTTSSPAPGAGGFQRSYSTTQRQHHPHLGGDSYDADQGLLSASYANMLQLPQRPHSPAHYAVPPQQQQHPQIHQQHASTPFGSTLRFDRAAMSIRERQPRYQPTSSPMQQQQQQQQQQQQQLQHTQLAAHLGGSYSSDSYPIYENPSRVISMRATQSQRSESPIYSNTTASSATLAVVPQHHHQGHLAVPSGSGGGSLSGSGRGGSSGSVRGASTSVQSLYVPPRTPPSAVAGAGGSANGSLQKVPSQQSLTEPEELPLPPGWATQYTLHGRKYYIDHNAHTTHWNHPLEREGLPVGWRRVVSKMHGTYYENQYTGQSQRQHPCLTSYYVYTTSAEPPKAIRPEASLYAPPTHTHNALVPANPYLLEEIPKWLAVYSEADSSKDHLLQFNMFSLPELEGFDSMLVRLFKQELGTIVGFYERYRRALILEKNRRAGQNQNQNQ
For B4, the figures for the binding result in experiment [2] and in experiment [4] were “no binding” and “binds”, respectively.

B5: Salvador (Sav), endogenous (protein, UniProt Q9VCR6 1-608)
chain: B4 chain
B5: the binding result in experiment [1] was “no binding”.
